This is an account of results in PMC3169561, “Restoration of IFNγR Subunit Assembly, IFNγ Signaling and Parasite Clearance in Leishmania donovani Infected Macrophages: Role of Membrane Cholesterol” (PLoS Pathogens, 2011).

The target in the test is T1, biotinylated recombinant murine IFNγ (mouse) (UniProt P01580).
T1 sequence (chain, biotin (EZ linked N-hydroxysulfosuccinimide-biotin)): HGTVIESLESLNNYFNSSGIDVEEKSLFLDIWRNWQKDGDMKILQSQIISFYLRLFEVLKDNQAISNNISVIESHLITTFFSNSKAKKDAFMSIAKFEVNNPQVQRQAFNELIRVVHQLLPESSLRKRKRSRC
Description: pull-down; biotinylated IFNγ (0.5 ng/ml, 3 min, 37°C) on RAW 264.7 cells, captured on streptavidin-agarose from pooled raft and non-raft fractions; blot for IFNγR1 and IFNγR2; complexes boiled in 1% SDS, re-precipitated with anti-pTyr and blotted for IFNγR1, JAK2, JAK1 and STAT1; only the target purified.

No constants are given. Whether binding was seen depends on the method and setting. Binding seen in cells or lysates may run through a third protein. Binding can be weak; no strength is given.

For the substance “IFNγ receptor subunit 2 (IFNγR2) (mouse (endogenous in RAW 264.7))”, the binding entry is reported as “binds”.
